# Primary screen of a compound library

Protein sequences, listed by entry. Tags and fused reporters are not part of them.
UniProt P9WFT3, whole entry: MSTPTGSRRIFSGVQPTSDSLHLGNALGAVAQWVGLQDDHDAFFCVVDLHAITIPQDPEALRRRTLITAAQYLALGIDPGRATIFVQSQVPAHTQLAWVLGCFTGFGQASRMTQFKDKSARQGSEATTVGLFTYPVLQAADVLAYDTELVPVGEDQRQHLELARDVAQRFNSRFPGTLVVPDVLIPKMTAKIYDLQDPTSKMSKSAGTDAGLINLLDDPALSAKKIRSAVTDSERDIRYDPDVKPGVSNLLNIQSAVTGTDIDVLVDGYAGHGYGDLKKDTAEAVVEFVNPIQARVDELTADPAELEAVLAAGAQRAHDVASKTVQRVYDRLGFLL
UniProt P9WNZ1, whole entry: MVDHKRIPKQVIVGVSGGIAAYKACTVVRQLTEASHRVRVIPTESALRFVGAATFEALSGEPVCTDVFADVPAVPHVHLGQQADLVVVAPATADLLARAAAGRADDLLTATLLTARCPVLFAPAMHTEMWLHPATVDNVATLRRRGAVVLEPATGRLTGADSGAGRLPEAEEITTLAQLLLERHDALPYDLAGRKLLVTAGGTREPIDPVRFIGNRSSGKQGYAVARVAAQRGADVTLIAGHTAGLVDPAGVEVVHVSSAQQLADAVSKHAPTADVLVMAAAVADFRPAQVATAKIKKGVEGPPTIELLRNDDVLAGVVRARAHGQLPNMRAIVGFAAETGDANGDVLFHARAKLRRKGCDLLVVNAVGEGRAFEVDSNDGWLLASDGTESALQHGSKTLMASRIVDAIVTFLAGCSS

Source: ChEMBL document CHEMBL3988442, “University of Dundee, Small-Polar-MMV Screening Library” (2021).

Leishmania in macrophages: 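Cell assay of Leishmania donovani living inside macrophages; the read-out is not stated. Concentration: 30 µM. Higher reads as stronger inhibition (inferred: compounds with an IC50 in retests scored well above the rest). Of about 69,000 compounds tested this way, about 1,000 (1.5%) reached 50% or more in at least one test.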
MtTrpRS: 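Enzyme assay of tryptophanyl-tRNA synthetase; the read-out is not stated. Target: Tryptophan-tRNA ligase, Mycobacterium tuberculosis (UniProt P9WFT3). Compounds at 10 µM. Direction is not recorded; retested compounds ran higher, which suggests that high means inhibition. About 65,000 compounds were tested under these conditions; 0.098% (about 64) showed 50% or more at least once.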
Toxoplasma: 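Assay of Toxoplasma gondii numbers, read through their beta-galactosidase reporter with a colour substrate. Compounds at 10 µM. Higher reads as fewer parasites (inferred from which compounds were picked for retests). About 67,000 compounds were tested under these conditions; 0.38% (about 260) showed 50% or more at least once.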
CoaBC: 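Coenzyme A biosynthesis protein CoaBC, Mycobacterium tuberculosis (UniProt P9WNZ1). Enzyme assay of CoaBC with a phosphate dye (Biomol Green) read at 650 nm. Tested at 30 µM. Higher reads as stronger inhibition, judged from the few compounds that gave an IC50. Most strong results did not repeat in a second test. Of about 67,000 compounds tested this way, about 40 (0.06%) reached 50% or more in at least one test.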

Results are given as percent effect.
The controls that fix the scale are not given in the record; negative values are as filed.
This is an unselected part of the compounds tested.
A dash means the value is not listed here; it may have been measured.

| Compound | Leishmania in macrophages | MtTrpRS | Toxoplasma | CoaBC |
|---|---|---|---|---|
| `CN1CCN(c2ccccc2CNC(=O)Cc2cccc(F)c2)CC1` | 30.82 | 11.91 | 5.119 | -20.7 |
| `CNc1cc(CNC(=O)c2ccccc2)nc(-c2ccncc2)n1` | 35.29 | 1.923 | 19.03 | 3.611 |
| `COCCS(=O)(=O)NC(C)c1ccccc1Br` (configuration not stated) | 27.63 | 2.168 | -0.7392 | -0.7009 |
| `c1ccc(-c2nc(CN3CCCC(Cn4cncn4)C3)co2)cc1` (configuration not stated) | 18.21 | -2.242 | 1.069 | 3.916 |
| `Cc1cc(-c2ccc(=O)n(CCNC(=O)C3CCC3)n2)c(C)o1` | -64.84 | 1.257 | 14.29 | -12.79 |
| `O=C(CCN1C(=O)CCC1=O)Nc1ccc(Cl)cc1` | -0.3766 | -3.194 | - | 1.353 |
| `CNc1cccc(CC2COCCN(C(=O)c3cccnc3)C2)n1` (configuration not stated) | 7.525 | -8.203 | -7.481 | -2.632 |
| `COc1ccccc1CNC(=O)COc1ccc2c(c1)OCC2O` (configuration not stated) | 13.7 | -1.508 | 6.577 | -2.197 |
| `Cc1cc(Br)c(O)c(C(=O)N2CCC(CN3CCCCCC3)CC2)c1` | 21.92 | 2.023 | -1.061 | -3.478 |
| `COc1cc(CN2CC[C@@]3(CCCO3)[C@@H](O)C2)ccc1F` | 24.32 | -1.254 | -2.114 | -0.2778 |
| `Cc1ccc(S(=O)(=O)NC(=O)c2c(C)noc2C(C)C)cc1C` | -25.63 | -2.436 | 0.2514 | 6.343 |
| `Cc1nn(C)c(N(C)C)c1CNCCC(=O)NC1CCCC1` | -28.76 | -2.128 | 7.246 | 2.427 |
| `CCC[C@H]1CN(Cc2cncn2C)C[C@@H]1NC(=O)C1(COC)CCC1` | 8.292 | 0.7224 | 15.79 | - |
| `O=C(O)C(F)(F)F.[H][C@]12CCN(C(=O)c3ccco3)[C@@]1([H])CC[C@H](COCCN1CCCC1)O2` | 5.436 | - | 2.882 | - |
| `CC1c2ncc(Cn3cccn3)n2CCN1Cc1ccc(F)cc1.O=C(O)C(F)(F)F` (configuration not stated) | 26.54 | - | -17.01 | - |
| `Cc1nnsc1C(=O)N1CCN(CC2CC2)[C@@H]2CS(=O)(=O)C[C@@H]21` | - | -3.99 | - | -1.927 |
| `Cc1cc(Cl)c(C)c(S(=O)(=O)N2CCN(Cc3ccccn3)CC2)c1Cl` | -18.02 | 3.06 | -0.5866 | 11.42 |
| `Cc1cc(C)n(CC2CN(Cc3ccc(C(N)=O)cc3)CCO2)n1` (configuration not stated) | -15.7 | 2.647 | 27.67 | -0.5076 |
| `CC1CCN(c2ncc(-c3ccccc3F)c(-c3nccn3C)n2)CC1` | -48.51 | -1.632 | 14.06 | 18.16 |
| `O=C(c1ccc(N2CCCC2)nn1)N1CCCc2cc(F)c(F)cc21` | 5.329 | 0.3749 | 7.375 | -2.917 |
| `NC(=O)C1CN(c2ccc3cc(Br)ccc3n2)CCO1` (configuration not stated) | -46.95 | 2.571 | 11.66 | 2.433 |
| `CN1CCC(C(=O)N2CCC(=Cc3cccc(F)c3)CC2)CC1=O` (configuration not stated) | -14.64 | 1.452 | 5.763 | 5.446 |
| `Cc1ccc(F)cc1C(=O)OCC1CCCN1C(N)=O` (configuration not stated) | 10.67 | 0.3112 | 2.406 | 7.662 |
| `O=C(c1ccc2c(c1)CCC2)N1CCn2ncnc2C1` | 14.83 | -2.388 | -35.94 | 0.6849 |
| `Cc1ccc(C2CCCCCN2C(=O)Nc2cn[nH]c2)o1` (configuration not stated) | 39.56 | 3.834 | 14.44 | 5.369 |
| `CS(=O)(=O)CCn1ccc(NC(=O)Cc2ccccc2F)n1` | -5.519 | 1.052 | 9.278 | -18.75 |
| `Cn1cc(CN2CCc3c(cnc(-c4ccccc4)c3C(=O)O)C2)cn1` | - | -5.289 | - | -0.4167 |
| `CNCCc1nc2cc(Cl)ccc2[nH]1.Cl.Cl` | 5.059 | - | -1.982 | - |
| `O=C(N[C@@H]1CN(Cc2ccc3c(c2)OCO3)[C@@H]2CCCO[C@@H]21)C1CC1` | - | -7.66 | - | -0.3807 |
| `CC1(NC(=O)Cc2csc(C(C)(C)C)n2)CCS(=O)(=O)C1` (configuration not stated) | 6.658 | -5.631 | 0.4379 | 14.29 |
| `CC(O)CN1CCN(C(=O)c2ccn(-c3ccc(F)cc3)n2)CC1` (configuration not stated) | -32.18 | -5.581 | -8.263 | -6.364 |
| `Cc1nc(CO[C@@H]2CN(Cc3ccco3)[C@@H]3COC[C@@H]32)cs1` | - | -2.553 | - | 4.069 |
| `Cc1cc(NCC2CC(=O)Nc3ccccc32)nc(C)n1` (configuration not stated) | 20.29 | 2.129 | 19.47 | 11.9 |
| `O=C(NC[C@H]1OC[C@@H]2CCN(Cc3ccco3)C[C@@H]21)c1ccnnc1` | - | 4.77 | - | 3.069 |
| `CSCCCN1CCCC1c1noc(C)n1` (configuration not stated) | 4.96 | 0.4717 | -15.95 | 4.521 |
| `Cc1ccc(N2CCN(C)c3ncccc3C2)nn1.O=C(O)C(F)(F)F` | 12.13 | - | -2.967 | - |
| `CCCN1CCC(CC(=O)NCc2cc(C)nn2C)CC1` | 19.94 | 0.9709 | 6.383 | -1.229 |
| `CC(=O)N1CCN(C(=O)NCCCc2cn[nH]c2C)CC1` | 12.17 | 3.366 | -5.641 | 10.06 |
| `Cn1ccc(C(=O)N2CCCC2c2ccc3c(c2)OCCO3)cc1=O` (configuration not stated) | -11.97 | 0.2018 | -9.065 | 5.847 |
| `CCNC(=O)CN1CCOC(c2ccccc2C(F)(F)F)C1` (configuration not stated) | 13.04 | 3.008 | 1.658 | 1.375 |
| `[H][C@]12CN(CC)C(=O)[C@@]1([H])CN(S(=O)(=O)c1cccs1)C2` | -8.234 | - | -40.14 | - |

The first 4 entries again:

Compound	Leishmania in macrophages	MtTrpRS	Toxoplasma	CoaBC
CN1CCN(c2ccccc2CNC(=O)Cc2cccc(F)c2)CC1	30.82	11.91	5.119	-20.7
CNc1cc(CNC(=O)c2ccccc2)nc(-c2ccncc2)n1	35.29	1.923	19.03	3.611
COCCS(=O)(=O)NC(C)c1ccccc1Br (configuration not stated)	27.63	2.168	-0.7392	-0.7009
c1ccc(-c2nc(CN3CCCC(Cn4cncn4)C3)co2)cc1 (configuration not stated)	18.21	-2.242	1.069	3.916